Results as given in PubChem BioAssay AID1671190 (National Center for Advancing Translational Sciences (NCATS), 2021).
In all, about 580,000 compounds went through this assay and about 6,100 (1.1%) were called active. The inconclusive results got no clear call from the source; some entries with a clear call stand among them for comparison. The call rests on the fitted dose curve; in most records, active means well fitted inhibition curve with a large enough effect; inconclusive means small, poorly fitted or top-dose-only effect, or another doubt; inactive means no such curve, though single readings can be large or run the other way. A potency beside an inconclusive call is a rough fit, not a confirmed value.

By UniProt entry, the sequences of proteins in these tests, tags left out.
UniProt P18054, whole entry, looked up: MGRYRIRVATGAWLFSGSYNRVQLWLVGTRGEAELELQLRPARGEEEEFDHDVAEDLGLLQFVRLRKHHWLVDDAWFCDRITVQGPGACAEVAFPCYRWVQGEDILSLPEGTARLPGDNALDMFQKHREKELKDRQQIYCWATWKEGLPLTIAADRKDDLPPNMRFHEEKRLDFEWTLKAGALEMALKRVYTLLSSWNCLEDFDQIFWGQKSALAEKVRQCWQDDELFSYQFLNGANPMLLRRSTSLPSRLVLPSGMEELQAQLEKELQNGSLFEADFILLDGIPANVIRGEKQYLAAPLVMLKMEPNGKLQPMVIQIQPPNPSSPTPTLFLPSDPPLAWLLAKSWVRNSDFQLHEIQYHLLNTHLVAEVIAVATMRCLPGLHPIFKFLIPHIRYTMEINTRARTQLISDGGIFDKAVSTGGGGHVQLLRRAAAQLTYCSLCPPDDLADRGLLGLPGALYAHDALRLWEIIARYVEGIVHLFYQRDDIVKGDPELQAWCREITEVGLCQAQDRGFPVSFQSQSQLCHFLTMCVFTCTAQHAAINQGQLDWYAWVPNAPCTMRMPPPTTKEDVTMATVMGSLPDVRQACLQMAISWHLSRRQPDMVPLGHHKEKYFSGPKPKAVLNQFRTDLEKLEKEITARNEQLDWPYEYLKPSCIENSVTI

Molecular target: Polyunsaturated fatty acid lipoxygenase ALOX12 (Homo sapiens) (UniProt P18054)
Assay: Primary qHTS assay for inhibitors of human arachidonate 12S-lipoxygenase (ALOX12): Round 2
Details: purified 12hLO, xylenol orange hydroperoxide absorbance; activity change, negative = inhibition: at 108 µM (top of the series) unless noted
Outline: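 Purified human 12hLO at 150 nM in 25 mM Hepes, 0.01% Triton X-100, pH 7.0, preincubated 15 min at room temperature with compound. Reaction started with 40 uM arachidonic acid, 30 min at room temperature. Hydroperoxide measured by Fe-xylenol orange, 573/405 nm absorbance ratio.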
On the % scale 0 is the no-effect control and ±100 the full control effect; potency means the concentration at half of the fitted maximal effect.

SMILES | Potency | activity change, negative = inhibition
COc1cc(NC(=O)C(=O)N2CCN(C)CC2)c(OC)cc1Cl | inconclusive: 126 µM [inhibitor, single point] | 
Cc1cc(C)c(C#N)c(SC(C(=O)NC(C)(C)C)c2ccccc2)n1 (stereo not given) | inconclusive: 79.4 µM [inhibitor, single point] | 
Nc1cccc(-c2csc(-n3ncc(C(=O)O)c3C(F)(F)F)n2)c1 | inconclusive: 39.8 µM [inhibitor, partial curve, poor fit] | 
COc1ccc(Cl)cc1S(=O)(=O)N1CCN(C(=O)c2cc(-c3ccc(Br)cc3)n[nH]2)CC1 |  | inactive: -15.4%
COc1ccc(-n2nc(C(=O)NCC(=O)Nc3ccccn3)c3ccccc3c2=O)cc1Cl | inconclusive: 112 µM [inhibitor, single point] | 
CN(C)c1cccc(Nc2cc3c(cn2)CN(Cc2ccccc2)CCN3)c1 | inconclusive: 79.4 µM [inhibitor, partial curve] | 
CCc1ccc(C(=O)N2CCC(c3cc(-c4cccc(OC)c4)n[nH]3)CC2)cc1 | inconclusive: 44.7 µM [inhibitor, partial curve, poor fit] | 
COc1ccc(OC)c(CN2CCCC(c3nc(C)ncc3-c3ccc(F)cc3)C2)c1 (stereo not given) |  | inconclusive: -30.2% [inhibitor]
Cc1cccc(OCC(O)CN2CCN(C3CCCCC3)CC2)c1 (stereo not given) | inconclusive: 35.5 µM [inhibitor, partial curve, poor fit] | 
COc1ccc([C@H]2CC(=O)C=C(c3ccc(Cl)cc3C)C2)cc1 | inconclusive: 39.8 µM [inhibitor, partial curve, poor fit] | 
COCCN(CCOC)Cc1cc(=O)oc2cc(C)c(C)cc12 | active: 14.1 µM | 
COC(=O)c1ccc(/C=N/N2CCN(Cc3ccc(Cl)cc3)CC2)cc1 | inconclusive: 89.1 µM [inhibitor, partial curve, poor fit] | 
O=C(NCc1ccco1)Nc1cccc2ccccc12 | inconclusive: 50.1 µM [inhibitor, partial curve, poor fit] | 
Cc1ccc(CNC(=O)C(C)n2c(=O)cc(-c3ccccc3)c3c(C)nn(C)c32)cc1 (stereo not given) | inconclusive: 100 µM [inhibitor, partial curve, poor fit] | 
COc1ccc(C#Cc2ccc3c(c2)O[C@@H](CN(C)C(=O)Nc2cccc(OC)c2)[C@H](C)CN([C@@H](C)CO)S3(=O)=O)cc1 | inconclusive: 79.4 µM [inhibitor, partial curve, poor fit] | 
Cc1cc([N+](=O)[O-])nn1CCCC(=O)Nc1sc2c(c1C(N)=O)CCCC2 | active: 44.7 µM | 
Cc1cccc(C(=O)Nc2ccc(C(=O)/C=C/c3cccnc3)cc2)c1 | inconclusive: 100 µM [inhibitor, partial curve, poor fit] | 
COc1ccc2cc(CN(CC3CCCO3)C(=O)Nc3ccccc3)c(=O)[nH]c2c1 (stereo not given) |  | inactive: -6.13%
Cc1ccc2nc(-c3c[nH]c4ccccc34)c(Nc3ccc(F)cc3)n2c1 | inconclusive: 63.1 µM [inhibitor, partial curve, poor fit] | 
CC(C)Nc1nc(-c2ccncc2)nc(-c2ccc(Cl)cc2)c1C#N | inconclusive: 31.6 µM [inhibitor, partial curve, poor fit] | 

Three of the compounds above, as comma-separated lines:
SMILES,Potency,"activity change, negative = inhibition"
Cc1cccc(C(=O)Nc2ccc(C(=O)/C=C/c3cccnc3)cc2)c1,"inconclusive: 100 µM [inhibitor, partial curve, poor fit]",
COc1ccc2cc(CN(CC3CCCO3)C(=O)Nc3ccccc3)c(=O)[nH]c2c1 (stereo not given),,inactive: -6.13%
Cc1ccc2nc(-c3c[nH]c4ccccc34)c(Nc3ccc(F)cc3)n2c1,"inconclusive: 63.1 µM [inhibitor, partial curve, poor fit]",

Going on with the list.

SMILES | Potency | activity change, negative = inhibition
CN1/C(=C\C(=O)Nc2ccc(Br)cc2)C(C)(C)c2ccccc21 | inconclusive: 89.1 µM [inhibitor, partial curve, poor fit] | 
Oc1ccc2c(c1)Oc1ncn3nc(COc4ccccc4)nc3c1C2c1ccccc1 (stereo not given) | inactive | 
Cc1cnc(SCc2ccccn2)nc1C1CCCN(C(=O)c2cc3ccccc3oc2=O)C1 (stereo not given) | inconclusive: 126 µM [inhibitor, single point] | 
CC(C)(C)c1ccc(C(=O)NC(=S)NCc2ccco2)cc1 | active: 14.1 µM | 
COc1ccc(NC(=O)c2ccc(CN3C(=O)NC4(CCOCC4)C3=O)cc2)cc1OC |  | inactive: 27.8%
Cc1nn2c(c1-c1ccccc1OCc1ccccc1)N(C(=O)COc1ccccc1)CCC2 |  | inactive: -8.65%
Cc1ccc(SC2=C(Sc3ccc(C)cc3)C(=O)c3ccccc3C2=O)cc1 | inconclusive: 6.31 µM [inhibitor, full curve] | 
Cc1oc(-c2ccccc2Cl)nc1CSc1nncn2c1cc1occc12 | inconclusive: 79.4 µM [inhibitor, partial curve, poor fit] | 
CC(=O)Nc1ccc(N2C(=O)c3cccc4c(O)ccc(c34)C2=O)cc1 |  | inactive: 0%
Cn1nc(C2CCCN2)c2c(C(=O)NCc3cccs3)cc(C3CC3)nc21 (stereo not given) | inconclusive: 2.85 µM [inhibitor, single point] | 
Cc1noc2c(NC3CCC(O)CC3)cc(-c3ccc(F)cc3)nc12 (stereo not given) | inconclusive: 89.1 µM [inhibitor, partial curve, poor fit] | 
COc1ccc2c(Sc3ccccc3)c(C(=O)NCc3cc(Br)ccc3OC)[nH]c2c1 | inconclusive: 22.4 µM [inhibitor, full curve, poor fit] | 
Cc1cn2nnc(C(=O)N3CCC(C(=O)Nc4ccc(C)c(C)c4)CC3)c2c(=O)[nH]1 |  | inactive: 55.4%
CC(=O)Nc1ccc(NC(=O)C(C)OC(=O)CNC(=O)c2ccc(-c3ccccc3)cc2)cc1 (stereo not given) | inconclusive: 7.94 µM [inhibitor, partial curve, poor fit] | 
COCCN(C(=O)c1ccc(C)c(S(=O)(=O)N2CCOCC2)c1)c1c(N)n(CC(C)C)c(=O)[nH]c1=O | inconclusive: 44.7 µM [inhibitor, partial curve, poor fit] | 
Cc1cccc(C(=O)NCC(=O)N2CCCCCCNC(=O)CC2c2ccccc2)c1 (stereo not given) |  | inactive: 26.6%
Cc1noc(C)c1COC(=O)c1ccc(-c2nc3ccccc3s2)s1 |  | inactive: -6.22%
CCC(=O)N1CCc2cc(S(=O)(=O)NC(CC(C)C)C(=O)N3CCc4ccccc43)ccc21 (stereo not given) |  | inactive: 0%
CCc1ccc(N2CC(C(=O)OCc3nc4ccsc4c(=O)[nH]3)CC2=O)cc1 (stereo not given) |  | inactive: -10.1%
FC(F)(F)c1ccc(/C=N/n2c(C3CCCCC3)n[nH]c2=S)cc1 | inconclusive: 39.8 µM [inhibitor, partial curve, poor fit] | 
